# Measured values published in the supplement of paper PMC3334620.
# Over roughly 33,000 sequences, “E-score (-0.5 to 0.5)” has its median near -0.016; the highest 2% begin near 0.3. The list shows a part of the results.
# Molecular target: T1, Yer184c (UniProt P39961)
# T1 sequence: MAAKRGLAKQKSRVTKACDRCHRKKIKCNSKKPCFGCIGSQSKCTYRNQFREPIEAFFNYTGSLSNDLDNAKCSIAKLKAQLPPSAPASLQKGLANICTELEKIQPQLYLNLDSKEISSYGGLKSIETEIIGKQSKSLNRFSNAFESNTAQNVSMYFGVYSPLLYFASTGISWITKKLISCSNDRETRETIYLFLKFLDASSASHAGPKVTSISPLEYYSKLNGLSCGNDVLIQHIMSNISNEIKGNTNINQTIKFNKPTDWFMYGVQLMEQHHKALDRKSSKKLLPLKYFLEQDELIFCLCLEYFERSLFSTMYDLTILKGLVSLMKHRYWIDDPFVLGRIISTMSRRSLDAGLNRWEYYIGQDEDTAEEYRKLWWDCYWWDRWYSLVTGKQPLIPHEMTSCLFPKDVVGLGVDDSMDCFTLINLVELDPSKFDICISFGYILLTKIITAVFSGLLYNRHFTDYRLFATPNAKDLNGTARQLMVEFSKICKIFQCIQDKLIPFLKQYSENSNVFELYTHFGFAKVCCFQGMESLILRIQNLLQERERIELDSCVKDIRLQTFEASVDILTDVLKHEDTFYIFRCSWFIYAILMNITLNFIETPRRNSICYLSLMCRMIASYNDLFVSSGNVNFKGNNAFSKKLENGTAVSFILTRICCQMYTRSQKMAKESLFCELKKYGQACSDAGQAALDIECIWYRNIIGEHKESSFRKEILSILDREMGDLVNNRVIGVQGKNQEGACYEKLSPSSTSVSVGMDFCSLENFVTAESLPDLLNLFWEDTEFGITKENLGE
# Assay: PBM E-score (8-mer binding enrichment) (E-score (-0.5 to 0.5)); higher = stronger / more preferred TF binding
# Settings: protein concentration: 100 nM; construct: GST-full length
# How it was run: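 PURExpress in vitro transcription/translation supplied GST-tagged yeast transcription factors, either full-length or DNA-binding domain. Applied at about 100-200 nM to universal all-10-mer Agilent arrays double-stranded by primer extension, the bound protein was detected with fluorescent anti-GST. E-scores, modified Wilcoxon-Mann-Whitney statistics, were given by the Universal PBM Analysis Suite to ungapped eight-base words pooled with their reverse complements after masliner normalisation.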
row,Sequence,PBM E-score
1,CAGCCTTC,-0.139
2,ACGTTGGA,-0.0829
3,AGTCCCGC,-0.137
4,GTACTGGA,-0.023
5,AACGAGAT,0.0148
6,AGGCCCTC,-0.26
7,CCAAGTAC,-0.167
8,GATTCTCA,0.119
9,AGAACGTC,-0.0716
10,ACCTGCGC,-0.0895
11,AGGGACGC,-0.193
12,AGGCATCG,-0.0561
13,GAAGCGAA,0.0247
14,TCACACGA,0.126
15,ATGATTAA,0.285
16,ACAGACTG,-0.152
17,ACATTCGT,-0.0675
18,AGTATCGG,0.25
19,GCCCTGAC,-0.191
20,TACACTGA,-0.0327
21,CACCTATA,-0.217
22,AGACGTCG,-0.182

# Reformatted: results already given.
row	Sequence	PBM E-score
19	GCCCTGAC	-0.191
20	TACACTGA	-0.0327

# (further entries)

row,Sequence,PBM E-score
1,GACGGTAA,0.143
2,CTCCAATA,0.195
3,CAATTAGG,0.115
4,ACAAAGGA,0.012
5,ATCGGCCG,0.388
6,CGGAAACC,0.188
7,ACAAATGC,0.132
8,AGAAAACA,0.199
9,AAAGGACA,0.0375
10,TAGCCGCA,-0.0301
11,GTCATGGA,-0.177
12,GTAAAGAC,0.0705
13,GTGAGAAC,-0.0436
14,CACTGAGC,-0.0794
15,AGGGATCA,-0.107
16,ATTAATTC,0.261
17,AGCAACCC,-0.145
18,CCCTCAAA,0.011
19,AACGGGGT,-0.221
20,CAGCTATG,-0.19
21,CATGGACA,-0.124
22,ACCCGACC,0.0573

row,Sequence,PBM E-score
1,GATCGACC,0.0906
2,CAGTCATA,-0.0857
3,TAGGGCAA,-0.0827
4,CCGCTTGA,0.0514
5,AACAGGCG,-0.158
6,GCGTGGCA,-0.137
7,CAGTGTTA,0.106
8,ATAATGTA,-0.00607
9,ACAGCGTA,-0.0923
10,GAAGGACA,0.138
11,ACTCTACG,-0.101
12,GGCCTGAA,-0.0522
13,GGAAACCA,-0.0101
14,ACTTGTCG,-0.073
15,CAATCAAC,0.0747
16,AGTTTCTC,0.137
17,AAATGTAA,0.223
18,CATGTCCA,0.0395
19,CTACCCAA,-0.164
20,GTCGCGCA,-0.0795
21,CTACAAAG,0.116
22,AGTGACAG,0.055

row,Sequence,PBM E-score
1,GATCAGAA,-0.147
2,AAGGGCAA,0.0626
3,CATTCAGC,0.056
4,ATACCCCG,-0.0236
5,ATTATTGG,0.0735
6,GCTAAAGC,-0.0627
7,CCTAGATC,-0.28
8,ACTCTGCA,-0.0169
9,CAGATCGG,0.103
10,GCGAGCCA,-0.109
11,CGTACAGC,-0.0968
12,CCCGTAAG,-0.117
13,ACCATTTC,-0.0512
14,AACCCATC,-0.186
15,ATGGACAT,0.0596
16,CCTCTTTA,-0.159
17,GTAGTGTA,0.0469
18,GTTATTCA,0.185
19,ATGCACTA,-0.0462
20,GCCCTCCC,-0.238
